Results taken from US20250282812A1, “ANTIVIRAL NUCLEOSIDE ANALOGUE, AND PHARMACEUTICAL COMPOSITION AND USE THEREOF” (SHANGHAI INSTITUTE OF MATERIA MEDICA , CHINESE ACADEMY OF …, priority 2022, published 2025).
Some entries share one result that the patent states for a list of compounds.

Assay: Stability test of compounds in solutions at different pH values
Conditions: solutions at pH 4.0 and pH 6.8, 24 h

## CC(=O)OC[C@@]1(F)O[C@@H](n2ccc(=O)n(COC(=O)c3cccnc3)c2=O)[C@H](OC(C)=O)[C@@H]1OC(C)=O.Cl [X219 hydrochloride]
  content changed in 24 h: ≤ 10%
